According to patent US6455270B1, “Method for inhibiting eukaryotic protein kinases” (TerraGen Discovery Inc., priority 1997, dated 2002):
At least one compound was matched to its structure with a doubt left.

Key:
Protein Kinase C = Protein Kinase C inhibition (PKC reaction); assay type: biochemical; settings: 10 ng PKC, incubated 30 min. at 30° C. with 5 ug compound (about 600 uM in 25 ul)
Method: III. Protein Kinase C incubated 30 min. at 30° C. with 5 ug usnic acid or 5 ug vulpinic acid: 5 ug in the 50 ul PTK reaction mixture represents a concentration of about 300 uM for both of these compounds and twice that in the 25 ul PKC reactions. Thus, inhibition was detected for this particular protein tyrosine kinase and only minimally inhibitory for protein kinase C. Other protein kinases may show greater or lesser levels of inhibition.

Human c-Src kinase = Human c-Src kinase (Homo sapiens, UniProt P12931); assay: Human c-Src kinase inhibition (PTK reaction); assay type: biochemical; settings: 0.2 unit c-Src
Method: I. Human c-Src kinase incubated 30 min. at 30° C. with 5 ug usnic acid or-vulpinic acid: II. Human c-Src incubated 5 min. at 30° C. with 5 ug usnic acid or 5 ug vulpinic acid: 5 ug in the 50 ul PTK reaction mixture represents a concentration of about 300 uM for both of these compounds and twice that in the 25 ul PKC reactions. Thus, inhibition was detected for this particular protein tyrosine kinase and only minimally inhibitory for protein kinase C. Other protein kinases may show greater or lesser levels of inhibition.

With CC(=O)c1c(O)c(C)c(O)c2c1OC1=CC(=O)C(C(C)=O)C(=O)C12C (stereo not drawn) [usnic acid] the “Protein Kinase C reaction reading (control reaction 0.289)” value (Protein Kinase C) was 0.234, the “c-Src kinase reaction reading (control reaction 0.208)” value (Human c-Src kinase; incubated 5 min. at 30° C. with 5 ug compound (about 300 uM in 50 ul)) was 0.120 and the “c-Src kinase reaction reading (control reaction 0.562)” value (Human c-Src kinase; incubated 30 min. at 30° C. with 5 ug compound (about 300 uM in 50 ul)) was 0.417.
